Measured values from PMC10904395, “The Deinococcus protease PprI senses DNA damage by directly interacting with single-stranded DNA”.
A negative result means that nothing was seen under these conditions. At least one verdict rests on a figure or table, not on a statement of the authors. For at least one entry, the source does not settle the construct or the ends of the probe.

Each sequence was assayed against DG-PprI (IrrE) (Deinococcus geothermalis) (UniProt Q1J1D6) (assay: EMSA). Settings: EMSA: 150 mM NaCl, 20 mM Tris-HCl pH 8.0, 0.1 mg/ml BSA, 0.1 uM FAM-labeled nucleic acid, 0/1/2 uM protein, room temperature 30 min, 10% native PAGE in 1x TB; recombinant protein; residues 1-289; protein details: tag removed; label: 5' FAM; single-stranded DNA.
GTTATCACAGGTATCAGAGTAGAG [24nt ssDNA]: binds.
GTTATCACAGGTATCAGAGTATAGAG [26nt ssDNA]: binds.
GTTATCACAGGTATCAGTAGAG [22nt ssDNA]: binds.
“GTTATCACAGGTTATCAGAGGTATAGAG [28nt ssDNA]”: binds.
“GTTATCACAGGTTATCTAGAGGTAGTAGAG [30nt ssDNA]”: binds.
“GTTATCACAGGTTATCTAGAGGTAGTAGAGTCAGAGGTAG [40nt ssDNA]”: binds.

Same assay, conditions: length threshold; EMSA: 150 mM NaCl, 20 mM Tris-HCl pH 8.0, 0.1 mg/ml BSA, 0.1 uM FAM-labeled nucleic acid, 0/1/2 uM protein, room temperature 30 min, 10% native PAGE in 1x TB; recombinant protein; residues 1-289; protein details: tag removed; label: 5' FAM; single-stranded DNA
GTTATCACAGGTTATCAGAG [20nt ssDNA]: binds.

Same assay, conditions: no stable complex below 20 nt; EMSA: 150 mM NaCl, 20 mM Tris-HCl pH 8.0, 0.1 mg/ml BSA, 0.1 uM FAM-labeled nucleic acid, 0/1/2 uM protein, room temperature 30 min, 10% native PAGE in 1x TB; recombinant protein; residues 1-289; protein details: tag removed; label: 5' FAM; single-stranded DNA
GTATCAAGAGTG [12nt ssDNA]: no binding.
GTATCAGAGCAGTG [14nt ssDNA]: no binding.
GTCAGAG [7nt ssDNA]: no binding.
GTTACAGAG [9nt ssDNA]: no binding.
GTTATCACAGGTACAGAG [18nt ssDNA]: no binding.
GTTATCACAGTCAGAG [16nt ssDNA]: no binding.
GTTATCAGAG [10nt ssDNA]: no binding.
GTTCAGAG [8nt ssDNA]: no binding.
